Data source: PubChem BioAssay AID1259308 (NCATS, 2017)
Here is a random part of about 59,000 reagents. About 1,510 of all reagents (2.6%) were called active. 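Calls use total luciferase alone and ignore viability, so some active siRNAs may act by altering cell number.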 A number with no mark means an inactive call. The numbers tell different reagents against one gene apart. Not all columns of the deposit are shown. No sequences are given here.

Test: 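Knock-downs that increase output of a recombinant reporter protein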 (primary screen)
Cell system: human HEK293 embryonic kidney cells stably expressing firefly luciferase (HEK-CMV-Luc2-Hygro)
Reagent: single siRNA against human genes, 0.8 pmol siRNA per well
Time to read-out: 72 h
Detection: 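Reporter luminescence and viable-cell signal on separate replicate plates, given as percent of non-targeting control and median/MAD z-scores, plus per-cell luciferase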
Direction: total luciferase, z-score: higher = more reporter protein produced
Rule for the call: 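An siRNA counts as active if its total luciferase robust z-score exceeds 3; genes with two or more such siRNAs out of three were retested with fresh siRNAs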
Meaning of the calls: active = raised luciferase; inactive = no rise

| gene | reagent | total luciferase, z-score |
| --- | --- | --- |
| LONRF2 | 1 | 2.06 |
| LONRF2 | 2 | -2.09 |
| LONRF2 | 3 | -0.583 |
| TRIM13 | 1 | -0.000591 |
| TRIM13 | 2 | 1.74 |
| TRIM13 | 3 | -0.0846 |
| ZFAND1 | 1 | 1.83 |
| ZFAND1 | 2 | -1.62 |
| ZFAND1 | 3 | -1.69 |
| TRAPPC5 | 1 | 0.288 |
| TRAPPC5 | 2 | 1.57 |
| TRAPPC5 | 3 | -0.908 |
| USP45 | 1 | 0.0651 |
| USP45 | 2 | 0.29 |
| USP45 | 3 | 0.82 |
| TXNIP | 1 | 0.126 |
| TXNIP | 2 | -1.51 |
| TXNIP | 3 | -0.254 |
| ALLC | 1 | 0.528 |
| ALLC | 2 | -0.274 |
| ALLC | 3 | -0.0611 |
| CXADR | 1 | -1.14 |
| CXADR | 2 | -1.09 |
| CXADR | 3 | 1.23 |
| CLASP2 | 1 | 0.82 |
| CLASP2 | 2 | 0.477 |
| CLASP2 | 3 | -2.55 |
| LCE3D | 1 | 2.22 |
| LCE3D | 2 | -1.93 |
| LCE3D | 3 | -2.79 |
| OBP2B | 1 | -0.252 |
| OBP2B | 2 | -1.35 |
| OBP2B | 3 | -1.66 |
| SEPSECS | 1 | 0.535 |
| SEPSECS | 2 | -0.578 |
| SEPSECS | 3 | -0.0818 |
| HSPA5 | 1 | -0.382 |
| HSPA5 | 2 | -3.29 |
| HSPA5 | 3 | 0.413 |
| ZNF331 | 1 | -0.605 |
| ZNF331 | 2 | 0.467 |
| ZNF331 | 3 | -0.0266 |
| FBXL7 | 1 | 0.0587 |
| FBXL7 | 2 | -0.122 |
| FBXL7 | 3 | -0.0444 |
| CYP2A6 | 1 | -0.638 |
| CYP2A6 | 2 | -0.792 |
| CYP2A6 | 3 | -0.414 |
| FASTK | 1 | -0.739 |
| FASTK | 2 | 2.76 |
| FASTK | 3 | -0.0611 |
| MPHOSPH6 | 1 | -0.295 |
| MPHOSPH6 | 2 | 0.359 |
| MPHOSPH6 | 3 | 0.93 |
| POTEKP | 1 | -0.69 |
| POTEKP | 2 | 1.51 |
| POTEKP | 3 | 0.0507 |

Copied from the listing (4 entries):
| gene | reagent | total luciferase, z-score |
| --- | --- | --- |
| TRAPPC5 | 1 | 0.288 |
| TRAPPC5 | 2 | 1.57 |
| TRAPPC5 | 3 | -0.908 |
| USP45 | 1 | 0.0651 |
